The list shows a part of the results.

The chains behind the UniProt entries cited, without tags or fusion partners.
UniProt Q0JBA9, entry or part of it: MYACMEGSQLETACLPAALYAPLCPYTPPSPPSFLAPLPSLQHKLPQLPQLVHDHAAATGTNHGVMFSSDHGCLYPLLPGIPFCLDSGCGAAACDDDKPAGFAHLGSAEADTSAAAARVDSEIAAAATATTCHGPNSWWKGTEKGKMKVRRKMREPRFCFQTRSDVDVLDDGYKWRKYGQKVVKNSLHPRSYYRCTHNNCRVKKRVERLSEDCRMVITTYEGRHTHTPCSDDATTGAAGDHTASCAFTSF

The target of the test is OsWRKY34 (Oryza sativa, UniProt Q0JBA9 1-250). In words: protein-binding microarray (RPBM); PBS, 2% BSA, 51.3 ng/ul salmon testes DNA, 50 uM zinc acetate, 200 nM TF, 25 C, 1 h; high values mean tight binding. The settings on record: protein: recombinant; tags: N-terminal polyhistidine and DsRed monomer fusion (pET32a); label: CyDye5-dUTP incorporated in the synthesized complementary strand; 3' TTTTT single-stranded linker to array surface; dsDNA, one strand shown. In a few lines:
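Transcription factors, each fused N-terminally to a polyhistidine tag and DsRed, were expressed in E. coli BL21-CodonPlus and purified on Ni–NTA. A custom Agilent array was made double-stranded by primer extension with Cy5-dUTP and blocked with 2% BSA. It was incubated with 200 nM protein in PBS, 2% BSA, salmon testes DNA and 50 µM zinc acetate at 25 °C for 1 h, then washed. The binding signal is per-feature fluorescence intensity (arbitrary units) read on an Axon 4000B scanner.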
On to “GTTATTACGGCCCACTCCCGCTATTACATGCCGCACAAGCCGGAGTCACCTAGTGCAG”, for which the binding signal is 10900 fluorescence intensity (a.u.).

In the case of “ACCCGACACCCCGACCTCAACTACGACCATAACAATAGCACGGAGTCACCTAGTGCAG”, the binding signal was 8850 fluorescence intensity (a.u.).

“GTCCATTATCTTCTTTGCCACCATTGATATATGCCTAACACGGAGTCACCTAGTGCAG”: the binding signal is 13800 fluorescence intensity (a.u.).

Consider “AAAATATGTTACTTCCGAATTTCATCCCGTATGTTCGGACCGGAGTCACCTAGTGCAG”, for which the binding signal was 8160 fluorescence intensity (a.u.).

On to “AGAAACCAAGCACGCATCCATATCCATCCATGCATCCAATCGGAGTCACCTAGTGCAG”, for which the binding signal is 8770 fluorescence intensity (a.u.).

As for “CCATTCTTTCATCTCGCTTCACCTCATCGCCATTGCCATCCGGAGTCACCTAGTGCAG”, the binding signal is 8810 fluorescence intensity (a.u.).

As for “GATGTGCAAAATCTAGACCGTTCCACTTGATTATCCATATCGGAGTCACCTAGTGCAG”, the binding signal is 8100 fluorescence intensity (a.u.).

As to “ACACTTCTTTTTGGACAATACTAGCATTACTTTCTAAAGCCGGAGTCACCTAGTGCAG”, the binding signal is 8910 fluorescence intensity (a.u.).

In the case of “TGGCCAGCTTCACCGCGAAGCGCCACGTGTCTTCCACTCACGGAGTCACCTAGTGCAG”, the binding signal was 10200 fluorescence intensity (a.u.).

For the sequence “GCCCGCGCGCCCGTCGCGCACCCTATCCTCGCCGCGCGCCCGGAGTCACCTAGTGCAG”, the binding signal is 9920 fluorescence intensity (a.u.).

Regarding “CGTTCGCTTCGTTAACCTCCGTTTCGTACGACGGAGGAGCCGGAGTCACCTAGTGCAG”, the binding signal was 8040 fluorescence intensity (a.u.).

Turning to “CGCCTATCTCTACCGCGCGCCCTCCGCCCCGCGGGCCCTTCGGAGTCACCTAGTGCAG”, the binding signal is 8800 fluorescence intensity (a.u.).

Consider “CAATCCAAGGTAATCTCATCAATAATCTCCTCGCTACACTCGGAGTCACCTAGTGCAG”, for which the binding signal was 8170 fluorescence intensity (a.u.).

For “GACCGACTACTCCTACAAACATTACTCAAGTCATTGCAAACGGAGTCACCTAGTGCAG”, the binding signal was 8200 fluorescence intensity (a.u.).

Regarding “TATAAATACTGCCAGCCTCTTCGTTCGTTTCCATTTTTCCCGGAGTCACCTAGTGCAG”, the binding signal is 9610 fluorescence intensity (a.u.).

On to “ACAGATTTGTCTCTGCAGCTGCTTCAATGCATAAACCGAACGGAGTCACCTAGTGCAG”, for which the binding signal is 8630 fluorescence intensity (a.u.).

For the sequence “TTGTCAAGTTGTTGCACTCGAACGTTTAATTCTCAAGTTCCGGAGTCACCTAGTGCAG”, the binding signal is 8560 fluorescence intensity (a.u.).

As to “GAATGCATGTCCCAGTCATACTAATCGACTCACTTTCACACGGAGTCACCTAGTGCAG”, the binding signal is 8840 fluorescence intensity (a.u.).

Regarding “TCCACTTATCATCTCTTAACTCTCCACTTTCATCCATCTCCGGAGTCACCTAGTGCAG”, the binding signal is 8200 fluorescence intensity (a.u.).

Take “ATCTATAGTCGACCCAACACAGCGACACCACCAGCGCCCACGGAGTCACCTAGTGCAG”: the binding signal was 8250 fluorescence intensity (a.u.).

For “ACGTCTCCTCGTCACCACTCGCCACAAGTCCACCGCAGCACGGAGTCACCTAGTGCAG”, the binding signal is 8360 fluorescence intensity (a.u.).

Turning to “GCAACGGGGAGGTGGGCGGAGGTGCGGCGCGGCGGCGGGCCGGAGTCACCTAGTGCAG”, the binding signal is 10300 fluorescence intensity (a.u.).

As to “CTTTCCGGCCATCCGGCCCCGGTGCTTTGGTTGGGCCCATCGGAGTCACCTAGTGCAG”, the binding signal was 8020 fluorescence intensity (a.u.).

“AGTAGTATTTTCTCTGGTCCCATAATTCTTAACGTTTTGACGGAGTCACCTAGTGCAG”: the binding signal is 12100 fluorescence intensity (a.u.).

As to “TCACCTCCGTCGTCGTCCGCCCTCCACCCGCCGCCGCCGACGGAGTCACCTAGTGCAG”, the binding signal is 11000 fluorescence intensity (a.u.).

Regarding “CACATGTGCCAACTACCCCTCCGTGGGTATTTCCGTCATTCGGAGTCACCTAGTGCAG”, the binding signal was 8850 fluorescence intensity (a.u.).

Regarding “ACCTTGGACCACTTAATATAACCATTTGTTTCATCCTGGACGGAGTCACCTAGTGCAG”, the binding signal is 8420 fluorescence intensity (a.u.).

As to “ATCTGTTCGGCCGGCCCAACCGTCTCGCCGCCCGTCTCCGCGGAGTCACCTAGTGCAG”, the binding signal is 8680 fluorescence intensity (a.u.).

Consider “CATCTGTTTCTGAATATTTGACGCCGTTGACTTTTTAAAACGGAGTCACCTAGTGCAG”, for which the binding signal was 19600 fluorescence intensity (a.u.).

Consider “CATCTTACTGGTCAGATCCTTGGTCATGCATATCTGTTCCCGGAGTCACCTAGTGCAG”, for which the binding signal was 9270 fluorescence intensity (a.u.).

For “GTTCATTTTCATGTTATTTTTCATGTAACTACATTATTATCGGAGTCACCTAGTGCAG”, the binding signal was 8990 fluorescence intensity (a.u.).

As to “CTTCCGGATAGTTCTCGTTTGTTCGTTAATTTGGGCCGAACGGAGTCACCTAGTGCAG”, the binding signal was 8620 fluorescence intensity (a.u.).

For “GACTAATATGCTCCTGACGAACTGATCCTGTCCATATCCACGGAGTCACCTAGTGCAG”, the binding signal is 8430 fluorescence intensity (a.u.).

As to “CATTGATTTTCACAGTCTTTCTTGTTTTTTTTTCCTCTTACGGAGTCACCTAGTGCAG”, the binding signal was 9480 fluorescence intensity (a.u.).

Turning to “GTTACCCTCTCCCTTTCTTGGCGAGCTTCTCTGGGTGAAACGGAGTCACCTAGTGCAG”, the binding signal is 8520 fluorescence intensity (a.u.).

For the sequence “TTCTGGCAAGCTTGTGATTCCTTGTCTTTTGCAGATACGTCGGAGTCACCTAGTGCAG”, the binding signal is 8670 fluorescence intensity (a.u.).

For “ACAGTTTTCTCCATCTTGGCCATTCGTGTGCTATATCCATCGGAGTCACCTAGTGCAG”, the binding signal is 16500 fluorescence intensity (a.u.).

“CGCCCAACCGCCTCCCGCCACACACACACGACACAACCCGCGGAGTCACCTAGTGCAG”: the binding signal is 9300 fluorescence intensity (a.u.).

For the sequence “GAAACGGGTCTTTTTTATTTTGTCTCCAACACCAGTTTGCCGGAGTCACCTAGTGCAG”, the binding signal was 12100 fluorescence intensity (a.u.).

On to “GGCTCCGAATTTCCTTTGTGATCATCCCTCTATTCATTTTCGGAGTCACCTAGTGCAG”, for which the binding signal was 8460 fluorescence intensity (a.u.).

For the sequence “ATGCCGCTCTATCTCTCTCTCTCTCTCTCTCTCTCTCTCTCGGAGTCACCTAGTGCAG”, the binding signal is 9760 fluorescence intensity (a.u.).

For the sequence “TGGCGCAATCAAACTAACACCGCTTTACGCTTTCGCCGCCCGGAGTCACCTAGTGCAG”, the binding signal was 9580 fluorescence intensity (a.u.).

Values taken from publication PMC7819943, “Rice protein-binding microarrays: a tool to detect cis-acting elements near promoter regions in rice”.
